From patent publication US20110190218A1 (KARLSRUHE INSTITUTE OF TECHNOLOGY, published 2011)
These are yes or no findings as the source states them, for the method shown. Binding seen in cells or lysates may run through a third protein. These calls come from enrichment with a bait or labelling near it, and not all partners need be listed.

The chains behind the UniProt entries cited, without tags or fusion partners. Residues count along the entry.
UniProt P38646, residues 47-679: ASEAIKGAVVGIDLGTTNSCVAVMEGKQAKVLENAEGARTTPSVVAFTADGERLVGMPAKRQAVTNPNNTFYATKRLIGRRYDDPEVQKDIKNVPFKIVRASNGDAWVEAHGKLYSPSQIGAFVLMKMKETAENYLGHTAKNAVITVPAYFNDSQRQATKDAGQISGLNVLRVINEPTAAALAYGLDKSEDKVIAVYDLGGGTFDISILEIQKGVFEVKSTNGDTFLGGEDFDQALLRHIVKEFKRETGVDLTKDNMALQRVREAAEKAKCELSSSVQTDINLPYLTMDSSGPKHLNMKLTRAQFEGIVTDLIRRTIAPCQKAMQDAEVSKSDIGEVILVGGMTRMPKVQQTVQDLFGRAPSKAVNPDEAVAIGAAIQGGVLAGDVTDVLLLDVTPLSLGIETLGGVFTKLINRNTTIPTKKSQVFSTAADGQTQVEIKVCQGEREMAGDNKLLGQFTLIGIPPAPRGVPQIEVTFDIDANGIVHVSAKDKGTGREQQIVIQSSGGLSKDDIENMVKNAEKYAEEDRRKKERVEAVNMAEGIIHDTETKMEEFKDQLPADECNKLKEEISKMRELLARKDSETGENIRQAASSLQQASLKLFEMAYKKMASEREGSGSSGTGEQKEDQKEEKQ
UniProt P11021, residues 19-654: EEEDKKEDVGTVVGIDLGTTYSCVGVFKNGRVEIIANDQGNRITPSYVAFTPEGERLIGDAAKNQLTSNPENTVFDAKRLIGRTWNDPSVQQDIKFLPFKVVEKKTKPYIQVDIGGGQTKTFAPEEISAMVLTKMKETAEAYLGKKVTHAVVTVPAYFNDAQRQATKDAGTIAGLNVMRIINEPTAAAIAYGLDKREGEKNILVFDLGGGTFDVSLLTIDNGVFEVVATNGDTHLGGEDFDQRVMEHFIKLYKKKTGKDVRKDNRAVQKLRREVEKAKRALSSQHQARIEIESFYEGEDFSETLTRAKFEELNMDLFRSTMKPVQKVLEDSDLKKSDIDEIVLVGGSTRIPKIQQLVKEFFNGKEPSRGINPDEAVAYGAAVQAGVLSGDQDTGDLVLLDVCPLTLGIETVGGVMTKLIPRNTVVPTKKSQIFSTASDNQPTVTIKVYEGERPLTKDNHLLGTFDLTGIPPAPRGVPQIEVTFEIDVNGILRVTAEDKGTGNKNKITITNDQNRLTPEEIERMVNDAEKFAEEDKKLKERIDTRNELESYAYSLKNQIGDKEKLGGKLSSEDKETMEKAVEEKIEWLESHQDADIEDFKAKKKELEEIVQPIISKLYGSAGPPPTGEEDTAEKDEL

Assays:
GRP75 (human) = GRP75 (human) (UniProt P38646); assay: GST pull-down from 22Rv.1 and LNCaP lysates, mass spectrometry; validated by Western blot (FIG. 12)
GRP78 (human) = GRP78 (human) (UniProt P11021); assay: as above

| Substance | binding (GRP75 (human)) | binding (GRP78 (human)) |
| --- | --- | --- |
| GST-Bag-1L-(202-241) (from UniProt P08515 1-218) | binds | binds |
| GST-Bag-1L-(202-269) (from UniProt P08515 1-218) | binds | binds |
